PubChem BioAssay AID504774, Drosophila RNAi Screening Center – 2011
Assay: 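Knock-downs that shift viability of MMS-exposed cells relative to untreated ones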 (primary screen). System: Drosophila Kc167 cells. Knock-down reagent: long dsRNA against Drosophila genes, about 0.25 µg dsRNA per well. Time to read-out: about 6 days: 3 days knock-down, then 3 days with or without MMS. Conditions: methyl methanesulphonate 0.004% (w/v) for 3 days after knock-down. Read-out: 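ATP-dependent luminescence as a measure of live cells in MMS-exposed wells, quantile normalised within each plate, with replicate values also given as a mean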. Direction: mean viability with MMS and viability with MMS: higher = more surviving cells after MMS.
The screen tested about 23,000 reagents; below is an unselected part of those that have a named target and a result. 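Values are quantile-normalised luminescence on an arbitrary scale; higher means more cells surviving MMS.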 The numbers tell different reagents against one gene apart. Names joined by + are all predicted targets of the reagent.

no.	Target gene	reagent no.	mean viability with MMS	viability with MMS, replicate 1	viability with MMS, replicate 2
1	CG17349	1	3.49e6	3.97e6	3.94e6
2	sphe	1	3.68e6	4.30e6	4.10e6
3	CG30377	1	3.68e6	4.18e6	4.17e6
4	CG30377	2	3.31e6	3.81e6	3.73e6
5	Uros2	1	3.53e6	4.08e6	3.93e6
6	CG8854	1	3.57e6	4.10e6	4.01e6
7	bou	1	3.50e6	4.03e6	3.91e6
8	CG4020	1	3.52e6	4.07e6	3.93e6
9	tal-1A + tal-2A + tal-AA + 1 more	1	3.48e6	4.02e6	3.88e6
10	CG17959	1	3.60e6	4.18e6	3.99e6
11	Pask	1	3.50e6	4.07e6	3.95e6
12	RhoGEF2	1	3.52e6	4.03e6	3.96e6
13	krz	1	3.59e6	4.04e6	4.10e6
14	TwdlR	1	3.56e6	4.06e6	3.99e6
15	Archease	1	3.93e6	3.95e6	5.06e6
16	insb	1	3.48e6	3.95e6	3.92e6
17	CG13365	1	3.67e6	4.10e6	4.20e6
18	CG6678	1	3.49e6	3.99e6	3.93e6
19	TotC	1	3.64e6	4.08e6	4.14e6
20	Apoltp	1	3.57e6	4.19e6	3.93e6
21	Nup93-1	1	2.90e6	3.56e6	3.28e6
22	lncRNA:CR30055	1	3.63e6	4.16e6	4.03e6
23	Tmlh	1	3.55e6	3.90e6	4.16e6
24	CG11695	1	3.48e6	3.91e6	3.96e6
25	CG31810	1	3.51e6	4.03e6	3.95e6
26	CG14760	1	3.62e6	4.03e6	4.11e6
27	mthl7	1	3.50e6	3.94e6	4.00e6
28	Catsup	1	3.51e6	4.00e6	3.96e6
29	CG14024	1	3.32e6	3.70e6	3.84e6
30	CG14024	2	3.58e6	4.03e6	4.10e6
31	CG31776	1	3.63e6	4.04e6	4.16e6
32	CG2100	1	3.54e6	4.08e6	3.95e6
33	CG6380	1	3.56e6	3.98e6	4.10e6
34	CG2006 + Spase12	1	3.71e6	4.11e6	4.26e6
35	Megf8	1	3.68e6	4.20e6	4.18e6
36	Gr21a	1	3.57e6	4.04e6	4.07e6
37	Marc	1	3.46e6	3.99e6	3.88e6
38	CAH6	1	3.40e6	3.92e6	3.72e6
39	Syx13	1	3.57e6	3.99e6	4.10e6
40	CG5618	1	3.55e6	4.00e6	4.05e6
41	CG14237	1	3.43e6	3.86e6	3.87e6
42	CG14237	2	3.71e6	4.16e6	4.27e6
43	CG18788	1	3.54e6	4.04e6	3.99e6
44	Grl58a	1	3.43e6	3.88e6	3.88e6
45	CG31883	1	3.80e6	4.50e6	4.13e6
46	Spase25	1	3.61e6	4.21e6	3.96e6
47	yellow-d2	1	3.58e6	3.87e6	4.26e6
48	NaPi-III	1	3.59e6	4.17e6	3.98e6
49	NaPi-III	2	3.03e6	3.47e6	3.52e6
50	NaPi-III	3	3.65e6	4.11e6	4.11e6
51	side-II	1	3.56e6	4.06e6	4.01e6
52	side-II	2	3.58e6	4.09e6	4.01e6
53	side-II	3	3.65e6	4.06e6	4.18e6
54	side-II	4	3.82e6	4.04e6	4.12e6
55	side-II	5	3.58e6	3.78e6	3.87e6
56	side-II	6	3.22e6	3.80e6	3.82e6
57	CG30447	1	3.55e6	4.09e6	3.95e6
58	MsrA	1	3.46e6	3.81e6	4.00e6
59	CG6712	1	3.66e6	4.08e6	4.27e6
60	CG6712	2	3.39e6	3.88e6	3.88e6
61	Spt6	1	2.71e6	3.04e6	3.13e6
62	CG4835	1	3.35e6	3.79e6	3.74e6
63	CG43339 + CG43338	1	3.59e6	4.13e6	4.04e6
64	CG33267	1	3.54e6	4.02e6	4.01e6
65	Gr94a	1	3.35e6	3.67e6	3.88e6
66	spas	1	3.40e6	3.78e6	3.92e6
67	pygo	1	3.07e6	3.71e6	3.66e6
68	CG11241	1	3.63e6	4.05e6	4.17e6
69	CG11241	2	3.44e6	3.90e6	3.95e6
70	CG18304	1	3.62e6	4.11e6	4.06e6
71	Yip1d1	1	3.59e6	4.10e6	4.04e6
72	CG13258	1	3.39e6	3.89e6	3.77e6
73	CG3961	1	3.64e6	4.17e6	4.06e6
74	CG3961	2	3.27e6	3.66e6	3.70e6
75	Rab30	1	3.57e6	3.95e6	4.13e6
76	CG15120	1	3.59e6	4.01e6	4.12e6
77	CG15525	1	3.54e6	4.02e6	4.00e6
78	CenG1A	1	3.75e6	4.11e6	4.25e6
79	CenG1A	2	3.86e6	4.16e6	4.49e6
80	CenG1A	3	3.54e6	4.02e6	4.02e6
81	CG4462	1	3.63e6	4.14e6	4.06e6
82	bun	1	3.35e6	3.60e6	3.96e6
83	bun	2	3.20e6	3.61e6	3.63e6
84	bun	3	2.82e6	3.17e6	3.07e6
85	bun	4	3.25e6	3.60e6	3.75e6
86	CngA	1	3.36e6	3.73e6	3.82e6
87	CngA	2	3.47e6	3.85e6	3.99e6
